PubChem BioAssay AID504808, Drosophila RNAi Screening Center | 2011
The screen tested about 21,000 reagents; this is a random part of those with a known target gene and a result. Over the whole deposit, 18 (0.084%) are marked active. 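Raw counts without plate normalisation, one of two replicates; the ratio scores behind the calls were not deposited.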 Entries without a mark were called inactive. Names joined by + are all predicted targets of the reagent. The record does not give: the amount of reagent, the time to read-out.

Purpose: 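Chromatin factors that keep E2F targets switched off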 (primary screen)
System: Drosophila S2 cells
Reagent: long dsRNA against Drosophila genes
Read-out: 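Firefly luciferase driven by E2F sites, normalised to Renilla luciferase on the same minimal promoter, measured by plate reader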
Direction: E2F firefly: higher = more E2F reporter activity; Renilla normaliser: higher = more normaliser reporter signal
Hit rule: 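Called active if the normalised E2F reporter went up by over 50%; the cutoff is arbitrary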

Silencing of CG4830 [DRSC15657] gave: E2F firefly, rep 1 = 1.45e5; Renilla normaliser, rep 1 = 6905.
Depletion of GlnRS [DRSC14140] gave: E2F firefly, rep 1 = 1724; Renilla normaliser, rep 1 = 1172.
Knock-down of Scamp [DRSC20286] came out at: E2F firefly, rep 1 = 1.73e5; Renilla normaliser, rep 1 = 17960.
With knock-down of RpL24 [DRSC03185] the results were E2F firefly, rep 1 = 59639; Renilla normaliser, rep 1 = 118.
With knock-down of AhcyL1 [DRSC08647] the results were E2F firefly, rep 1 = 1.13e5; Renilla normaliser, rep 1 = 4389.
Against CG15642 [DRSC19678], the values are E2F firefly, rep 1 = 1.34e5; Renilla normaliser, rep 1 = 6257.
Depletion of CG3655 [DRSC17676] gave: E2F firefly, rep 1 = 83630; Renilla normaliser, rep 1 = 2983.
For CG3655 [DRSC18181] the deposit lists E2F firefly, rep 1 = 60385; Renilla normaliser, rep 1 = 4630.
CG3655 [DRSC18477] scored E2F firefly, rep 1 = 71585; Renilla normaliser, rep 1 = 5032.
For mthl5 [DRSC16155], the values are E2F firefly, rep 1 = 1.29e5; Renilla normaliser, rep 1 = 6244.
Snx21 [DRSC00564] showed E2F firefly, rep 1 = 94978; Renilla normaliser, rep 1 = 4070.
Silencing of Pka-R1 [DRSC11674] came out at: E2F firefly, rep 1 = 66676; Renilla normaliser, rep 1 = 3240.
For Pka-R1 [DRSC11875], the values are E2F firefly, rep 1 = 69755; Renilla normaliser, rep 1 = 3282.
Knock-down of CG8516 [DRSC16437] gave: E2F firefly, rep 1 = 1.39e5; Renilla normaliser, rep 1 = 7751.
CG4199 [DRSC18519] gave E2F firefly, rep 1 = 2280; Renilla normaliser, rep 1 = 944.

6 entries from above, reduced to “Renilla normaliser, rep 1”:
AhcyL1 [DRSC08647] = 4389
CG15642 [DRSC19678] = 6257
CG3655 [DRSC17676] = 2983
CG3655 [DRSC18181] = 4630
CG3655 [DRSC18477] = 5032
mthl5 [DRSC16155] = 6244

The results go on:
With knock-down of E(var)3-9 [DRSC14451], the screen gave E2F firefly, rep 1 = 1.42e5; Renilla normaliser, rep 1 = 6700.
For Grasp65 [DRSC10917], the values are E2F firefly, rep 1 = 1.34e5; Renilla normaliser, rep 1 = 7586.
For CG6418 [DRSC10633], the values are E2F firefly, rep 1 = 62420; Renilla normaliser, rep 1 = 3092.
CG8006 [DRSC10949] scored E2F firefly, rep 1 = 75090; Renilla normaliser, rep 1 = 3602.
Knock-down of CG2611 [DRSC02710] came out at: E2F firefly, rep 1 = 83285; Renilla normaliser, rep 1 = 3692.
After knock-down of Pcl [DRSC07503] the results were E2F firefly, rep 1 = 62622; Renilla normaliser, rep 1 = 3189.
Silencing of Dark [DRSC05922] came out at: E2F firefly, rep 1 = 78137; Renilla normaliser, rep 1 = 3275.
Silencing of IA-2 [DRSC00304] resulted in: E2F firefly, rep 1 = 90930; Renilla normaliser, rep 1 = 3839.
With knock-down of IA-2 [DRSC00652] the results were E2F firefly, rep 1 = 74942; Renilla normaliser, rep 1 = 4142.
With knock-down of CG6621 [DRSC16076], the screen gave E2F firefly, rep 1 = 69744; Renilla normaliser, rep 1 = 3687.
Depletion of CG3638 [DRSC18533] came out at: E2F firefly, rep 1 = 1.00e5; Renilla normaliser, rep 1 = 5449.
With knock-down of CG31953 (retired record) + gkt [DRSC00709], the screen gave E2F firefly, rep 1 = 85445; Renilla normaliser, rep 1 = 3990.
Knock-down of fl(2)d [DRSC07620] came out at: E2F firefly, rep 1 = 96034; Renilla normaliser, rep 1 = 4196.
After knock-down of spin [DRSC07176], the record shows E2F firefly, rep 1 = 74427; Renilla normaliser, rep 1 = 4041.
Against Atg3 [DRSC10736], the entry reads E2F firefly, rep 1 = 76642; Renilla normaliser, rep 1 = 3139.
CG14362 [DRSC14824] scored E2F firefly, rep 1 = 1.07e5; Renilla normaliser, rep 1 = 7893.
Against NimC2 [DRSC01881], the entry reads E2F firefly, rep 1 = 1.04e5; Renilla normaliser, rep 1 = 4277.
prim [DRSC06575] gave E2F firefly, rep 1 = 1.43e5; Renilla normaliser, rep 1 = 6196.
For Spn53F [DRSC06022], the values are E2F firefly, rep 1 = 1.47e5; Renilla normaliser, rep 1 = 5687.
With knock-down of kuz [DRSC03555], the record shows E2F firefly, rep 1 = 1.03e5; Renilla normaliser, rep 1 = 4772.
Diap2 [DRSC07444] gave E2F firefly, rep 1 = 67423; Renilla normaliser, rep 1 = 3246.
